# Source: the supplement of paper PMC11438910
# Some of the results follow. The signal is at background level for most entries.
# Columns and labels:
# Assay in all cases: fluorescence intensity of antibody binding to polysaccharide-coupled beads; higher = stronger binding
# [1] = target: pneumococcal polysaccharide Pn41A
# [2] = target: pneumococcal polysaccharide Pn41F
# [3] = target: pneumococcal polysaccharide Pn42
# [4] = target: pneumococcal polysaccharide Pn43
# [5] = target: pneumococcal polysaccharide Pn44
# [6] = target: pneumococcal polysaccharide Pn45
# [7] = target: pneumococcal polysaccharide Pn46
# [8] = target: pneumococcal polysaccharide Pn47A
# [9] = target: pneumococcal polysaccharide Pn47F
# [10] = target: pneumococcal polysaccharide Pn48
# [11] = target: pneumococcal polysaccharide Pn5
# [12] = target: pneumococcal polysaccharide Pn6A
# [13] = target: pneumococcal polysaccharide Pn6B
# [14] = target: pneumococcal polysaccharide Pn6C
# [15] = target: pneumococcal polysaccharide Pn6D
# [16] = target: pneumococcal polysaccharide Pn7A
# [17] = target: pneumococcal polysaccharide Pn7B
# [18] = target: pneumococcal polysaccharide Pn7C
# [19] = target: pneumococcal polysaccharide Pn7F
# [20] = target: pneumococcal polysaccharide Pn8
# [21] = target: pneumococcal polysaccharide Pn9A
# [22] = target: pneumococcal polysaccharide Pn9L
# [23] = target: pneumococcal polysaccharide Pn9N
# [24] = antibody concentration 2.8593 ng/mL
# [25] = antibody concentration 15.2894 ng/mL
# [26] = antibody concentration 81.7561 ng/mL
# [27] = antibody concentration 437.17 ng/mL
# [28] = antibody concentration 2337.65 ng/mL
# [29] = antibody concentration 12500 ng/mL
# [30] = antibody concentration 0.1 ng/mL
# [31] = antibody concentration 0.534724 ng/mL
binder,measurement,setting,value
4-173.5 (protein) chain 1: QLQLQESGPGLVKPSETLSLTCAVSGDSISSNYWSWIRQPPGKGLEWIGRISDGGGSTDYNPSLKSRVTISTDTSKNQFSLKLNSVTAADTAVYFCARGSYRVDYWGQGVLVTVSS chain 2: QAALTQPPSMSGSPGQSVTISCTGASSDIGGYNRVSWYQQHPANAPKLMIYDVSKRPSGVSDRFSGSKSGNTASLTISGLQADDEADYYCSSYAHINTALFGGGTRLTVL,fluorescence intensity,[1]; [24],26 MFI
same,fluorescence intensity,[1]; [25],38.5 MFI
same,fluorescence intensity,[1]; [26],125 MFI
same,fluorescence intensity,[1]; [27],651 MFI
same,fluorescence intensity,[1]; [28],2070 MFI
same,fluorescence intensity,[1]; [29],3180 MFI
same,fluorescence intensity,[2]; [30],12.5 MFI
same,fluorescence intensity,[2]; [31],13.5 MFI
same,fluorescence intensity,[2]; [24],14.5 MFI
same,fluorescence intensity,[2]; [25],30.2 MFI
same,fluorescence intensity,[2]; [26],137 MFI
same,fluorescence intensity,[2]; [27],640 MFI
same,fluorescence intensity,[2]; [28],2050 MFI
same,fluorescence intensity,[2]; [29],3270 MFI
same,fluorescence intensity,[3]; [30],12 MFI
same,fluorescence intensity,[3]; [31],11.5 MFI
same,fluorescence intensity,[3]; [24],15 MFI
same,fluorescence intensity,[3]; [25],35 MFI
same,fluorescence intensity,[3]; [26],182 MFI
same,fluorescence intensity,[3]; [27],984 MFI
same,fluorescence intensity,[3]; [28],3380 MFI
same,fluorescence intensity,[3]; [29],5150 MFI
same,fluorescence intensity,[4]; [30],16.5 MFI
same,fluorescence intensity,[4]; [31],16.5 MFI
same,fluorescence intensity,[4]; [24],16 MFI
same,fluorescence intensity,[4]; [25],22.5 MFI
same,fluorescence intensity,[4]; [26],50 MFI
same,fluorescence intensity,[4]; [27],273 MFI
same,fluorescence intensity,[4]; [28],1390 MFI
same,fluorescence intensity,[4]; [29],3510 MFI
same,fluorescence intensity,[5]; [30],25 MFI
same,fluorescence intensity,[5]; [31],25.5 MFI
same,fluorescence intensity,[5]; [24],25 MFI
same,fluorescence intensity,[5]; [25],26 MFI
same,fluorescence intensity,[5]; [26],31 MFI
same,fluorescence intensity,[5]; [27],58.5 MFI
same,fluorescence intensity,[5]; [28],333 MFI
same,fluorescence intensity,[5]; [29],1070 MFI
same,fluorescence intensity,[6]; [30],11 MFI
same,fluorescence intensity,[6]; [31],11.2 MFI
same,fluorescence intensity,[6]; [24],12 MFI
same,fluorescence intensity,[6]; [25],14 MFI
same,fluorescence intensity,[6]; [26],27.5 MFI
same,fluorescence intensity,[6]; [27],152 MFI
same,fluorescence intensity,[6]; [28],842 MFI
same,fluorescence intensity,[6]; [29],1920 MFI
same,fluorescence intensity,[7]; [30],24.2 MFI
same,fluorescence intensity,[7]; [31],24 MFI
same,fluorescence intensity,[7]; [24],27.5 MFI
same,fluorescence intensity,[7]; [25],60 MFI
same,fluorescence intensity,[7]; [26],290 MFI
same,fluorescence intensity,[7]; [27],1250 MFI
same,fluorescence intensity,[7]; [28],3860 MFI
same,fluorescence intensity,[7]; [29],6470 MFI
same,fluorescence intensity,[8]; [30],15.5 MFI
same,fluorescence intensity,[8]; [31],16 MFI
same,fluorescence intensity,[8]; [24],16.5 MFI
same,fluorescence intensity,[8]; [25],23.8 MFI
same,fluorescence intensity,[8]; [26],74 MFI
same,fluorescence intensity,[8]; [27],387 MFI
same,fluorescence intensity,[8]; [28],1530 MFI
same,fluorescence intensity,[8]; [29],2300 MFI
same,fluorescence intensity,[9]; [30],12 MFI
same,fluorescence intensity,[9]; [31],12.5 MFI
same,fluorescence intensity,[9]; [24],13.5 MFI
same,fluorescence intensity,[9]; [25],23.8 MFI
same,fluorescence intensity,[9]; [26],103 MFI
same,fluorescence intensity,[9]; [27],586 MFI
same,fluorescence intensity,[9]; [28],2020 MFI
same,fluorescence intensity,[9]; [29],3440 MFI
same,fluorescence intensity,[10]; [30],21.5 MFI
same,fluorescence intensity,[10]; [31],21 MFI
same,fluorescence intensity,[10]; [24],24.8 MFI
same,fluorescence intensity,[10]; [25],29 MFI
same,fluorescence intensity,[10]; [26],68 MFI
same,fluorescence intensity,[10]; [27],336 MFI
same,fluorescence intensity,[10]; [28],1480 MFI
same,fluorescence intensity,[10]; [29],2650 MFI
same,fluorescence intensity,[11]; [30],8.5 MFI
same,fluorescence intensity,[11]; [31],9.75 MFI
same,fluorescence intensity,[11]; [24],10.5 MFI
same,fluorescence intensity,[11]; [25],22.8 MFI
same,fluorescence intensity,[11]; [26],102 MFI
same,fluorescence intensity,[11]; [27],492 MFI
same,fluorescence intensity,[11]; [28],1680 MFI
same,fluorescence intensity,[11]; [29],2950 MFI
same,fluorescence intensity,[12]; [30],22 MFI
same,fluorescence intensity,[12]; [31],22 MFI
same,fluorescence intensity,[12]; [24],25.5 MFI
same,fluorescence intensity,[12]; [25],54.8 MFI
same,fluorescence intensity,[12]; [26],224 MFI
same,fluorescence intensity,[12]; [27],965 MFI
same,fluorescence intensity,[12]; [28],2660 MFI
same,fluorescence intensity,[12]; [29],4170 MFI
same,fluorescence intensity,[13]; [30],19.2 MFI
same,fluorescence intensity,[13]; [31],20.2 MFI
same,fluorescence intensity,[13]; [24],21 MFI
same,fluorescence intensity,[13]; [25],36.8 MFI
same,fluorescence intensity,[13]; [26],141 MFI
same,fluorescence intensity,[13]; [27],609 MFI
same,fluorescence intensity,[13]; [28],1610 MFI
same,fluorescence intensity,[13]; [29],2710 MFI
same,fluorescence intensity,[14]; [30],17.2 MFI
same,fluorescence intensity,[14]; [31],16.2 MFI
same,fluorescence intensity,[14]; [24],16.8 MFI
same,fluorescence intensity,[14]; [25],21.2 MFI
same,fluorescence intensity,[14]; [26],85.8 MFI
same,fluorescence intensity,[14]; [27],472 MFI
same,fluorescence intensity,[14]; [28],1880 MFI
same,fluorescence intensity,[14]; [29],4170 MFI
same,fluorescence intensity,[15]; [30],18.8 MFI
same,fluorescence intensity,[15]; [31],17.5 MFI
same,fluorescence intensity,[15]; [24],19.8 MFI
same,fluorescence intensity,[15]; [25],31 MFI
same,fluorescence intensity,[15]; [26],122 MFI
same,fluorescence intensity,[15]; [27],623 MFI
same,fluorescence intensity,[15]; [28],2070 MFI
same,fluorescence intensity,[15]; [29],3600 MFI
same,fluorescence intensity,[16]; [30],19.5 MFI
same,fluorescence intensity,[16]; [31],18.5 MFI
same,fluorescence intensity,[16]; [24],20 MFI
same,fluorescence intensity,[16]; [25],21 MFI
same,fluorescence intensity,[16]; [26],21.5 MFI
same,fluorescence intensity,[16]; [27],36.2 MFI
same,fluorescence intensity,[16]; [28],105 MFI
same,fluorescence intensity,[16]; [29],454 MFI
same,fluorescence intensity,[17]; [30],16 MFI
same,fluorescence intensity,[17]; [31],16.5 MFI
same,fluorescence intensity,[17]; [24],18.2 MFI
same,fluorescence intensity,[17]; [25],26 MFI
same,fluorescence intensity,[17]; [26],100 MFI
same,fluorescence intensity,[17]; [27],586 MFI
same,fluorescence intensity,[17]; [28],2710 MFI
same,fluorescence intensity,[17]; [29],4980 MFI
same,fluorescence intensity,[18]; [30],14.5 MFI
same,fluorescence intensity,[18]; [31],16 MFI
same,fluorescence intensity,[18]; [24],15.5 MFI
same,fluorescence intensity,[18]; [25],23 MFI
same,fluorescence intensity,[18]; [26],61.8 MFI
same,fluorescence intensity,[18]; [27],410 MFI
same,fluorescence intensity,[18]; [28],2140 MFI
same,fluorescence intensity,[18]; [29],3960 MFI
same,fluorescence intensity,[19]; [30],14.5 MFI
same,fluorescence intensity,[19]; [31],15.8 MFI
same,fluorescence intensity,[19]; [24],17.5 MFI
same,fluorescence intensity,[19]; [25],27.8 MFI
same,fluorescence intensity,[19]; [26],83 MFI
same,fluorescence intensity,[19]; [27],312 MFI
same,fluorescence intensity,[19]; [28],954 MFI
same,fluorescence intensity,[19]; [29],1870 MFI
same,fluorescence intensity,[20]; [30],22.5 MFI
same,fluorescence intensity,[20]; [31],22 MFI
same,fluorescence intensity,[20]; [24],23 MFI
same,fluorescence intensity,[20]; [25],27.5 MFI
same,fluorescence intensity,[20]; [26],42 MFI
same,fluorescence intensity,[20]; [27],136 MFI
same,fluorescence intensity,[20]; [28],429 MFI
same,fluorescence intensity,[20]; [29],872 MFI
same,fluorescence intensity,[21]; [30],21 MFI
same,fluorescence intensity,[21]; [31],20.5 MFI
same,fluorescence intensity,[21]; [24],22.2 MFI
same,fluorescence intensity,[21]; [25],49.5 MFI
same,fluorescence intensity,[21]; [26],264 MFI
same,fluorescence intensity,[21]; [27],1330 MFI
same,fluorescence intensity,[21]; [28],4250 MFI
same,fluorescence intensity,[21]; [29],6900 MFI
same,fluorescence intensity,[22]; [30],15.5 MFI
same,fluorescence intensity,[22]; [31],18 MFI
same,fluorescence intensity,[22]; [24],18 MFI
same,fluorescence intensity,[22]; [25],21.5 MFI
same,fluorescence intensity,[22]; [26],43.2 MFI
same,fluorescence intensity,[22]; [27],252 MFI
same,fluorescence intensity,[22]; [28],1370 MFI
same,fluorescence intensity,[22]; [29],2880 MFI
same,fluorescence intensity,[23]; [30],17 MFI
same,fluorescence intensity,[23]; [31],17.2 MFI
same,fluorescence intensity,[23]; [24],17.5 MFI
same,fluorescence intensity,[23]; [25],34.2 MFI
same,fluorescence intensity,[23]; [26],166 MFI
same,fluorescence intensity,[23]; [27],988 MFI

# Another view of some results above.
binder	measurement	setting	value
4-173.5 (protein) chain 1: QLQLQESGPGLVKPSETLSLTCAVSGDSISSNYWSWIRQPPGKGLEWIGRISDGGGSTDYNPSLKSRVTISTDTSKNQFSLKLNSVTAADTAVYFCARGSYRVDYWGQGVLVTVSS chain 2: QAALTQPPSMSGSPGQSVTISCTGASSDIGGYNRVSWYQQHPANAPKLMIYDVSKRPSGVSDRFSGSKSGNTASLTISGLQADDEADYYCSSYAHINTALFGGGTRLTVL	fluorescence intensity	[11]; [27]	492 MFI
same	fluorescence intensity	[11]; [28]	1680 MFI
same	fluorescence intensity	[11]; [29]	2950 MFI
same	fluorescence intensity	[12]; [30]	22 MFI

# Five entries drawn at random from the list so far, as already listed:
binder,measurement,setting,value
4-173.5 (protein) chain 1: QLQLQESGPGLVKPSETLSLTCAVSGDSISSNYWSWIRQPPGKGLEWIGRISDGGGSTDYNPSLKSRVTISTDTSKNQFSLKLNSVTAADTAVYFCARGSYRVDYWGQGVLVTVSS chain 2: QAALTQPPSMSGSPGQSVTISCTGASSDIGGYNRVSWYQQHPANAPKLMIYDVSKRPSGVSDRFSGSKSGNTASLTISGLQADDEADYYCSSYAHINTALFGGGTRLTVL,fluorescence intensity,[16]; [24],20 MFI
same,fluorescence intensity,[14]; [28],1880 MFI
same,fluorescence intensity,[19]; [25],27.8 MFI
same,fluorescence intensity,[22]; [26],43.2 MFI
same,fluorescence intensity,[10]; [30],21.5 MFI
